According to patent US20190185516A1 (YISSUM RESEARCH DEVELOPMENT COMPANY OF THE HEBREW …, published 2019):
These are yes or no findings as the source states them, for the method shown. Some entries that bind do so weakly or less than the wild type.

Biological target: MyD88 TIR domain produced as a recombinant protein fused to the SUMO3 protein (UniProt P55854)
Experiment: ELISA, recombinant MyD88 coated at 8 µg/ml, biotinylated linear peptide at 125 µg/ml, streptavidin-HRP

binding: binds
B1: biotinylated linear BB loop peptide RDVLPGT (peptide)
peptide: RDVLPGT
modifications: biotinylated (position of the biotin not stated)
